{"source": "PubChem BioAssay AID504834", "about": "(National Center for Advancing Translational Sciences (NCATS), 2011)", "note": "Out of some 320,000 compounds screened, about 22,000 (6.9%) were called active. This list was built around the results that the source calls inconclusive (neither active nor inactive); the mix of calls is not that of the screen. Calls follow the shape of the dose curve; as a rule, active = well fitted inhibition curve with a large enough effect; inconclusive = small, poorly fitted or top-dose-only effect, or another doubt; inactive = no such curve, though single readings can be large or run the other way. A potency beside an inconclusive call is a rough fit, not a confirmed value."}
{"test": "Primary qHTS for delayed death inhibitors of the malarial parasite plastid, 96 hour incubation; also: potency is read from the fitted curve at half-maximal effect", "conditions": "P. falciparum luciferase reporter growth; series mostly up to 28.7 µM", "procedure,_shortened": "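Infected RBCs, 2% Hct / 0.05% parasitemia final; luciferase-reporter P. falciparum; cpd 96 h, 37 C, 5% CO2; luciferase detection reagent; luminescence.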"}
{"molecule": "Cc1ccc(S(=O)(=O)N2Cc3ccccc3CC2C(=O)Nc2cc(C)on2)cc1", "note": "(stereo not drawn)", "Potency": "inactive"}
{"molecule": "Cc1ccc(Cl)cc1NC(=O)COC(=O)c1ccc(CN2CCCC2=O)cc1", "Potency": "inconclusive: 18.5 µM [inhibitor, single point]"}
{"molecule": "COc1cc(OC)cc(-c2cc(N)n(S(=O)(=O)Cc3ccccc3)n2)c1", "Potency": "active: 8.28 µM"}
{"molecule": "COc1ccc(OCC(O)CN2CCCCCC2)cc1", "note": "(stereo not drawn)", "Potency": "inconclusive: 11.7 µM [inhibitor, partial curve, poor fit]"}
{"molecule": "COc1ccc(OC)c(-c2cc(C3CCN(c4ncccc4[N+](=O)[O-])CC3)[nH]n2)c1", "Potency": "active: 9.28 µM"}
{"molecule": "O=C(N/N=C/c1ccncc1)C12CC3CC(CC(C3)C1)C2", "Potency": "inactive"}
{"molecule": "COc1ccc(S(=O)(=O)N2CCCCCC2)cc1C(=O)N(C)Cc1ccc(C)cc1", "Potency": "inconclusive: 11.7 µM [inhibitor, single point]"}
{"molecule": "Cc1ccc2c(C(=O)CN3CCCC3)c(C)[nH]c2c1", "Potency": "inconclusive: 18.5 µM [inhibitor, partial curve, poor fit]"}
{"molecule": "Cc1nc2c(-c3ccccc3)c(C)nn2c(C)c1CCC(=O)NC(C)CCc1ccco1", "note": "(stereo not drawn)", "Potency": "active: 10.4 µM"}
{"molecule": "CC(C)CCNC(=O)[C@H](CC(C)C)NC(=O)[C@H]1O[C@@H]1C(=O)O", "Potency": "active: 2.08 µM"}
{"molecule": "Cc1cc2c(=O)n(NC(N)=O)c(C)nc2s1", "Potency": "inconclusive: 10.4 µM [inhibitor, partial curve]"}
{"molecule": "Cn1c(=O)c2c(nc(Br)n2Cc2ccc3ccccc3c2)n(C)c1=O", "Potency": "active: 5.22 µM"}
{"molecule": "COc1ccccc1NC(=O)Nc1nnc(C(C)c2ccccc2)s1", "note": "(stereo not drawn)", "Potency": "inconclusive: 18.5 µM [inhibitor, single point]"}
{"molecule": "COc1ccc(NC(=O)C23CC4CC(C2)CC(c2ccccc2)(C4)C3)c(OC)c1", "Potency": "inconclusive: 0.0465 µM [inhibitor, full curve, poor fit]"}
{"molecule": "FC(F)(F)c1cccc(NC(=S)Nc2cccc(NC(=S)Nc3cccc(C(F)(F)F)c3)n2)c1", "Potency": "inconclusive: 11.7 µM [inhibitor, partial curve, poor fit]"}
{"molecule": "COc1cccc(/C=N/Nc2nc(C)cc(=O)[nH]2)c1OC", "Potency": "inactive"}
{"molecule": "COC(=O)C1=C(c2cccc(OCc3ccccc3)c2)C[C@@H]2CC[C@H]1N2C(=O)NCCN1CCOCC1", "Potency": "active: 5.22 µM"}
{"molecule": "Cc1ccc(-c2ccc(CCC(=O)O)n2-c2ccc(O)cc2)cc1", "Potency": "inactive"}
{"molecule": "COc1ccccc1CNn1c(-c2cccc(C)c2)nc2ccccc2c1=O", "Potency": "active: 11.7 µM"}
{"molecule": "COc1ccc(-c2nc(CCl)cs2)cc1", "Potency": "inactive"}
{"molecule": "Cc1nc(N2CCN(C(c3ccccc3)c3ccccc3)CC2)[nH]c(=O)c1C", "Potency": "inconclusive: 13.1 µM [inhibitor, single point]"}
{"molecule": "Cc1ccc(-c2nnc(NC(=O)Cc3ccc(F)cc3)o2)c(C)c1", "Potency": "inconclusive: 14.7 µM [inhibitor, partial curve, poor fit]"}
{"molecule": "CCCCCOC(=O)NCCOC(=O)Nc1ccc(C(=O)OCC)cc1", "Potency": "active: 11.7 µM"}
{"molecule": "O=C(Nc1ccccc1)c1c2c(nc3ccccc13)CCCC2", "Potency": "inconclusive: 18.5 µM [inhibitor, single point]"}
{"molecule": "CCc1ccc(N2Cc3ccccc3C2)cc1", "Potency": "inconclusive: 4.15 µM [inhibitor, full curve]"}
{"molecule": "CCCn1c(SCC(=O)Nc2ccccc2C(=O)NC2CC2)n[nH]c1=O", "Potency": "inactive"}
{"molecule": "Cc1sc2c(c1C)C(c1ccc(C(C)(C)C)cc1)=NCC(=O)N2CC(=O)Nc1nccs1", "Potency": "active: 10.4 µM"}
{"molecule": "N#Cc1nc(Cc2ccccc2)oc1N1CCN(c2cccc(Cl)c2)CC1", "Potency": "inactive"}
{"molecule": "C=CCN(Cc1nc(-c2ccc(OC)c(OC)c2)oc1C)C1CCS(=O)(=O)C1", "note": "(stereo not drawn)", "Potency": "inactive"}
{"molecule": "Cc1ccccc1N1CCN(C2CCCN(C(=O)CCC(=O)N(C)C)C2)CC1", "note": "(stereo not drawn)", "Potency": "inconclusive: 10.4 µM [inhibitor, single point]"}
{"molecule": "O=C(CSc1ccccn1)N1CCOCC1", "Potency": "inconclusive: 18.5 µM [inhibitor, single point]"}
{"molecule": "CC1=C(C)C(=O)C(C(CCCCCC(=O)O)c2ccccc2)=C(C)C1=O", "note": "(stereo not drawn)", "Potency": "inconclusive: 19 µM [inhibitor, partial curve]"}
{"molecule": "Cc1scc(C(=O)NNC(=S)NC(C)c2ccccc2)c1C", "note": "(stereo not drawn)", "Potency": "inactive"}
{"molecule": "Cc1cc(C)cc(OCc2nc(-c3cccnc3)no2)c1", "Potency": "inactive"}
{"molecule": "CC(=O)c1cnc2c(-c3ccc(Cl)cc3)c(C)nn2c1C", "Potency": "inactive"}
{"molecule": "O=C(NCCN1CCN(c2cccc(Cl)c2)CC1)c1ccc(CSc2nc3ccncc3[nH]2)cc1", "Potency": "inconclusive: 8.28 µM [inhibitor, partial curve, poor fit]"}
{"molecule": "Cc1ccccc1NCC(=O)Nc1cc(S(=O)(=O)N2CCCCC2)ccc1C", "Potency": "inconclusive: 10.4 µM [inhibitor, partial curve, poor fit]"}
{"molecule": "Cc1ccc(CCNC(=O)C2CCC(=O)N(Cc3cccc(F)c3)C2)cc1", "note": "(stereo not drawn)", "Potency": "inconclusive: 11.7 µM [inhibitor, single point]"}
{"molecule": "COc1ccc(-c2cc(C)no2)cc1S(=O)(=O)Nc1ccccc1", "Potency": "inconclusive: 18.5 µM [inhibitor, single point]"}
{"molecule": "CCOC(=O)C1(CC2CC2)CCN(Cc2ccc3cccc(F)c3n2)CC1", "Potency": "inactive"}
{"molecule": "CCCC1=Nc2cc(C(=O)NCc3ccco3)ccc2Sc2ccccc21", "Potency": "active: 2.94 µM"}
{"molecule": "COc1ccccc1CNC(=S)Nc1ccc(F)cc1", "Potency": "inconclusive: 18.5 µM [inhibitor, single point]"}
{"molecule": "Cc1cccc(NC(=O)C[n+]2ccccc2)c1", "Potency": "inconclusive: 13.1 µM [inhibitor, partial curve, poor fit]"}
{"molecule": "CC(C)CC(NC(=O)c1cccc(Cl)c1)C(=O)O", "note": "(stereo not drawn)", "Potency": "inconclusive: 20.8 µM [inhibitor, partial curve, poor fit]"}
{"molecule": "Cc1csc(NC(=O)c2c(O)c3c(n(CC(C)C)c2=O)CCCC3)n1", "Potency": "inactive"}
{"molecule": "O=C(CSc1nnc(NC(=O)c2ccco2)s1)Nc1ccc(F)cc1F", "Potency": "inactive"}
{"molecule": "CCCCN(CCCC)c1nc(-c2ccncc2)nc2ccccc12", "Potency": "inconclusive: 2.08 µM [inhibitor, full curve]"}
{"molecule": "COc1ccc(S(=O)(=O)n2nc(OC(=O)c3ccccc3)cc2N)cc1", "Potency": "inconclusive: 14.7 µM [inhibitor, partial curve]"}
